Measurements taken from publication PMC5694546.
No constants are given. Whether binding was seen depends on the method and setting. In cells and extracts the contact can be indirect.

Protein sequences, listed by entry. Tags and fused reporters are not part of them. Residues count along the entry.
UniProt O87120, residues 16-222: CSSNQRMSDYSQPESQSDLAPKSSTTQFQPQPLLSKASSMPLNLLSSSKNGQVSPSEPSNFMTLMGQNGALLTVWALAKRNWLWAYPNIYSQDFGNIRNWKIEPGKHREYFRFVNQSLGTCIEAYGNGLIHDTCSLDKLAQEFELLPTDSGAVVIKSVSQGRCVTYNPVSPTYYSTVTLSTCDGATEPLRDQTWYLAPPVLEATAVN

Molecular target: T1, cellugyrin (synaptogyrin 2) (human (endogenous in Jurkat, HPBMC and HeLa)) (UniProt O43760)
T1 sequence: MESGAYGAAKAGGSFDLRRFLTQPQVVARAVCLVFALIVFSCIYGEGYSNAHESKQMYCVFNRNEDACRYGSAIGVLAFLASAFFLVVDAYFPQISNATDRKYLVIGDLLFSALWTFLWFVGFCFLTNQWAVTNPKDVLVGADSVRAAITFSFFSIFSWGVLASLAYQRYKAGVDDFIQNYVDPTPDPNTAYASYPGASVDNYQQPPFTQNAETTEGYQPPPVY
Experiment: co-IP

Substance: Aggregatibacter actinomycetemcomitans cytolethal distending toxin subunit A (CdtA) (from UniProt O87120 16-222)
- binding: no binding
